# In the supplement of paper PMC12819154, “High-throughput peptide-centric local stability assay extends protein–ligand identification to membrane proteins, tissues and bacteria” (Nature Structural & Molecular Biology, 2025):
# Sequences of proteins named here, by UniProt entry; tags and fusion partners are left off. A change or cut given only in a name is not applied to a line headed by its entry.
# UniProt P32143: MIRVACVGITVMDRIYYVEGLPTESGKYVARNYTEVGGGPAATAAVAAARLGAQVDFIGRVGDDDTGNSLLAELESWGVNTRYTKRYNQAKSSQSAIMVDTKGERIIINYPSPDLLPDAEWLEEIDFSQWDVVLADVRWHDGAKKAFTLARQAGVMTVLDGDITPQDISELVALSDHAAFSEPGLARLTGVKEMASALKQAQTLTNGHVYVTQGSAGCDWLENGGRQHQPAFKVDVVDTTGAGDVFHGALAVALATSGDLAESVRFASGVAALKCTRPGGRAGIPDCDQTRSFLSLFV
# UniProt P31446: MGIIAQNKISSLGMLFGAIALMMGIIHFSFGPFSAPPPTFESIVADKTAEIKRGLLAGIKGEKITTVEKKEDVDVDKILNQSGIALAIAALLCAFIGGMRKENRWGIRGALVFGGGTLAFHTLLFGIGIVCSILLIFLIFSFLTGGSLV
# UniProt P33570: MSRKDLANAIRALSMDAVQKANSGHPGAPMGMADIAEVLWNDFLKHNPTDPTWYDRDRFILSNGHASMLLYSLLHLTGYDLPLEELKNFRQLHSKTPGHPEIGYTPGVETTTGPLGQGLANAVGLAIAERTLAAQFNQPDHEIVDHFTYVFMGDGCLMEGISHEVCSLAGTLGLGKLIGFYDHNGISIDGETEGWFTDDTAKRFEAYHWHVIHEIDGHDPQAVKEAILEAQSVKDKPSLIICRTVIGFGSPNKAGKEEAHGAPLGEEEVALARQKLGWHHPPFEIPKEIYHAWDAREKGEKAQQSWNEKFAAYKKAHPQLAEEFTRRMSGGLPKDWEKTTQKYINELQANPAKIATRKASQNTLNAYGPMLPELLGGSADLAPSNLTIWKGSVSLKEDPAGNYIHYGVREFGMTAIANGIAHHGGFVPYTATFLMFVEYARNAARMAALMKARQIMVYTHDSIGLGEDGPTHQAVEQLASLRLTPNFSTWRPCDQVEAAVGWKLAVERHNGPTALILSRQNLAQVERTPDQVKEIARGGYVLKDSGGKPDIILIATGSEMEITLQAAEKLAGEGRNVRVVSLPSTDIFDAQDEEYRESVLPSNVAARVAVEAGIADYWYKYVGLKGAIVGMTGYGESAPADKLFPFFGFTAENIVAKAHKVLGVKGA
# UniProt P27238: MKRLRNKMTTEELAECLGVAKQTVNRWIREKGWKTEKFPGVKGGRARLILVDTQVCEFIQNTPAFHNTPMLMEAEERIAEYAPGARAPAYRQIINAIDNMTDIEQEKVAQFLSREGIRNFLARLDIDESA
# Some of the results follow. Most values lie at the level of the controls, where differences are scatter.
# Compound: CC1(C)S[C@@H]2[C@H](NC(=O)[C@H](N)c3ccccc3)C(=O)N2[C@H]1C(=O)O [ampicillin]
# Experiment: log2 fold change of tryptic peptide abundance, ligand vs vehicle (limited proteolysis) (log2 ratio); higher = more trypsin-susceptible (destabilized)
# Settings: ligand concentration: 10 uM; sample: E. coli crude lysate
row,Target,log2 fold change
1,"UniProt P32143 (peptide sequence: AGIPDCDQTR, peptide start residue: 282)",0.245
2,"UniProt P31446 (peptide sequence: GLLAGIKGEK, peptide start residue: 54)",0.249
3,"UniProt P33570 (peptide sequence: QNLAQVER, peptide start residue: 520)",-0.659
4,"UniProt P27238 (peptide sequence: IAEYAPGAR, peptide start residue: 78)",-0.0586
